# The other results are listed elsewhere or left out.
# The chains behind the UniProt entries cited, without tags or fusion partners. Where a name states a change or a piece, a line headed by the entry shows the natural chain unless it says otherwise.
# UniProt Q00610: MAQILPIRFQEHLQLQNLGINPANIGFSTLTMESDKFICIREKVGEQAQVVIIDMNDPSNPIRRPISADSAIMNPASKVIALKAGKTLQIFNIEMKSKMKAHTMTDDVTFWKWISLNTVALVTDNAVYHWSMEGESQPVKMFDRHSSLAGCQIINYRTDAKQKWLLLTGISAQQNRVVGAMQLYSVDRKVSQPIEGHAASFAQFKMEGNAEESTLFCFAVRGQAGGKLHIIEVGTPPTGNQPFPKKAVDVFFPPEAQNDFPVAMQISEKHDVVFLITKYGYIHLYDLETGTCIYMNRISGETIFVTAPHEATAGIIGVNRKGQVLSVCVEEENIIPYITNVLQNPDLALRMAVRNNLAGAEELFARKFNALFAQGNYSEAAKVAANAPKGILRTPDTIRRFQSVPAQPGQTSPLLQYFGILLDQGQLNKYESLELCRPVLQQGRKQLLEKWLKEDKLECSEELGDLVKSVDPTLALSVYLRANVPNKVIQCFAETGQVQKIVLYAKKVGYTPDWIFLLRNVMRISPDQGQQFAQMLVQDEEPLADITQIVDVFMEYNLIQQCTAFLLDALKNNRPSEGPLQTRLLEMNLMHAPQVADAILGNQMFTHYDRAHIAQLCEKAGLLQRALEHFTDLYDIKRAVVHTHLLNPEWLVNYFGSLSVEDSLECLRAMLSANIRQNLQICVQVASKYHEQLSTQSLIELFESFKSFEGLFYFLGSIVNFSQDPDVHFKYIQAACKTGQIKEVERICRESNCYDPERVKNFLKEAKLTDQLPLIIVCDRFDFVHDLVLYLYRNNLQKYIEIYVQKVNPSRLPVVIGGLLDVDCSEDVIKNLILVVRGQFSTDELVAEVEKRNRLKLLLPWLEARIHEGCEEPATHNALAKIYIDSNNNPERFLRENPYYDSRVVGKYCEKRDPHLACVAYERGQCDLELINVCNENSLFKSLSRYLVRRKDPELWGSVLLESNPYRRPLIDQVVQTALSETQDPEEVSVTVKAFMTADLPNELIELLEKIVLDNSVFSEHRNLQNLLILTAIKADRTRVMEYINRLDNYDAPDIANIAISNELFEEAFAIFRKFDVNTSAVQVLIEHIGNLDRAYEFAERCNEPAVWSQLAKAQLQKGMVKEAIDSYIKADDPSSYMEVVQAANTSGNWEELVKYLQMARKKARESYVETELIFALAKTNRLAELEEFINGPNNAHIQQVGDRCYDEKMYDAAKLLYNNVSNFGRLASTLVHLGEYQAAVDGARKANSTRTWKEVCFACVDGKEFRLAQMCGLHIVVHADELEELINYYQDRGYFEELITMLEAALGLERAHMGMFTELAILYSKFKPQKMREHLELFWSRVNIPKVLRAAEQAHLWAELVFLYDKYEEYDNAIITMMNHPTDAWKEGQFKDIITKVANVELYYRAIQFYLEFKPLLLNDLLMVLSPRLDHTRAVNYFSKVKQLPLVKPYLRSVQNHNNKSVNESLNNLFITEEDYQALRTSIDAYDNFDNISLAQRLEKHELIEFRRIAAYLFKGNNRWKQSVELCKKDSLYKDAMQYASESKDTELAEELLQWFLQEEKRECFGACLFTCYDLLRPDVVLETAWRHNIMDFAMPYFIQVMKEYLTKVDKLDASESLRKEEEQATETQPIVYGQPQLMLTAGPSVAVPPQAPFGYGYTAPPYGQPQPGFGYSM
# UniProt Q9HCK8: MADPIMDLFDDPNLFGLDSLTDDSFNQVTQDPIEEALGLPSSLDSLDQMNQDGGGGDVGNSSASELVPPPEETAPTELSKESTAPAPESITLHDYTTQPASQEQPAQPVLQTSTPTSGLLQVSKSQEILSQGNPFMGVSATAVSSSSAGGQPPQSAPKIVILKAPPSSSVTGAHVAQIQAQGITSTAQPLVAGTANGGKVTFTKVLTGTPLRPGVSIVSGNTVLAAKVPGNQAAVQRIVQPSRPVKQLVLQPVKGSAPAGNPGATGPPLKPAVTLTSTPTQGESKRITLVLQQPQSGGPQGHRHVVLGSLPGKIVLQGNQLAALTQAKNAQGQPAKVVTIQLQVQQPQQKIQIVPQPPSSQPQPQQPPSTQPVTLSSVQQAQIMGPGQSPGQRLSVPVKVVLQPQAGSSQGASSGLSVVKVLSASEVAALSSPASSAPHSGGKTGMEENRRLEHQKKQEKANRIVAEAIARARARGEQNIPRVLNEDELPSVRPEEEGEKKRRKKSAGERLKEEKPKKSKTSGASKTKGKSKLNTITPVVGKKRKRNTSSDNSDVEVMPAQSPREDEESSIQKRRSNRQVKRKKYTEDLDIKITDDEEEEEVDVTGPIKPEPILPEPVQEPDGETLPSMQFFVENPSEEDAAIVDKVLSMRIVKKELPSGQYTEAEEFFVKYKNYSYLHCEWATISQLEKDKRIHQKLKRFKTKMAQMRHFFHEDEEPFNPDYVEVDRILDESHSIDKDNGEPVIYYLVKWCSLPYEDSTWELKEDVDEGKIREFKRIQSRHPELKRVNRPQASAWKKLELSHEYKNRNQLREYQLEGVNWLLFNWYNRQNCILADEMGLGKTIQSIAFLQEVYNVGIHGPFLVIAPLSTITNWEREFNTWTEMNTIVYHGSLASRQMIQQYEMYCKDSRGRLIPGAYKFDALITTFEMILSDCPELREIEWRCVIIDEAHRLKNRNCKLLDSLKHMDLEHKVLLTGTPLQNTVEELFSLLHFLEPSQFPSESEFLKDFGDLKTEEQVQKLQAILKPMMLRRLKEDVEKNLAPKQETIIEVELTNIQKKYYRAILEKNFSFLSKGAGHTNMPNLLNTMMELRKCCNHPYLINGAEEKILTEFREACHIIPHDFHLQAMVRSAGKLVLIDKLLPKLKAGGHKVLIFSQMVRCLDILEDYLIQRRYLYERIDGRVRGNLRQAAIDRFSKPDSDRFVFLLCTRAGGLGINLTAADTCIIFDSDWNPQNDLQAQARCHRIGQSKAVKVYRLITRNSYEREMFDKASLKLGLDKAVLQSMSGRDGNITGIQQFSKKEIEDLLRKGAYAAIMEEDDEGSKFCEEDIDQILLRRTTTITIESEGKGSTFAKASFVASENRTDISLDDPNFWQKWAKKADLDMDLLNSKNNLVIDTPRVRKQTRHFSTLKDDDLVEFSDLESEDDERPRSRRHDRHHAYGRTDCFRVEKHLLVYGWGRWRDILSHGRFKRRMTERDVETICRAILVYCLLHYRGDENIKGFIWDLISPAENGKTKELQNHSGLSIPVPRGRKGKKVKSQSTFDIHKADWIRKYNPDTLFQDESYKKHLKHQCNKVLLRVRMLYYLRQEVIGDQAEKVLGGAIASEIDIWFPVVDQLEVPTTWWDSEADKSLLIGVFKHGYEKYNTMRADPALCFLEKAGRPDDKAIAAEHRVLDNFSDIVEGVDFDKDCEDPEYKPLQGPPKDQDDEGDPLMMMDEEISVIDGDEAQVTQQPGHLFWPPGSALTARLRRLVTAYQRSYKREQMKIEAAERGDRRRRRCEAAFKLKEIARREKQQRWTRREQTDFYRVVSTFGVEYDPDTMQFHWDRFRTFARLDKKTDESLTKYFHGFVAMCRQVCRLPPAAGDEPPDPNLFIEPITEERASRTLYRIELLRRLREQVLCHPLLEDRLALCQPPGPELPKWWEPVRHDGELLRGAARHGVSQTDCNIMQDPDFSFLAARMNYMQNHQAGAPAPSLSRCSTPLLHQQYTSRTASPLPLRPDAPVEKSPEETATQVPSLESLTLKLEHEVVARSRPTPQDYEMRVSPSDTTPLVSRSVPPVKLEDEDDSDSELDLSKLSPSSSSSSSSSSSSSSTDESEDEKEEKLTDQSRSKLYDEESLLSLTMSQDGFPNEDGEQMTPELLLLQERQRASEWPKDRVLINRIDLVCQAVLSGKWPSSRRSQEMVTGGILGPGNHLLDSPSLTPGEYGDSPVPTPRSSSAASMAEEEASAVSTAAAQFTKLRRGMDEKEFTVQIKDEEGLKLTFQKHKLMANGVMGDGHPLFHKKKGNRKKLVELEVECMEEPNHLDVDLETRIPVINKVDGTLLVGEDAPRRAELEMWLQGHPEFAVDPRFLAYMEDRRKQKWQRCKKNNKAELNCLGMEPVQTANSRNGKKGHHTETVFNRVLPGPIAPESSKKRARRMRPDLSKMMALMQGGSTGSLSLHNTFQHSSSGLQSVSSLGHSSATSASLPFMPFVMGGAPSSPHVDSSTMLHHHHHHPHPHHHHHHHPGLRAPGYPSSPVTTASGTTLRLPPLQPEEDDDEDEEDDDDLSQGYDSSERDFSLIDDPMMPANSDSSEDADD
# UniProt Q86X95: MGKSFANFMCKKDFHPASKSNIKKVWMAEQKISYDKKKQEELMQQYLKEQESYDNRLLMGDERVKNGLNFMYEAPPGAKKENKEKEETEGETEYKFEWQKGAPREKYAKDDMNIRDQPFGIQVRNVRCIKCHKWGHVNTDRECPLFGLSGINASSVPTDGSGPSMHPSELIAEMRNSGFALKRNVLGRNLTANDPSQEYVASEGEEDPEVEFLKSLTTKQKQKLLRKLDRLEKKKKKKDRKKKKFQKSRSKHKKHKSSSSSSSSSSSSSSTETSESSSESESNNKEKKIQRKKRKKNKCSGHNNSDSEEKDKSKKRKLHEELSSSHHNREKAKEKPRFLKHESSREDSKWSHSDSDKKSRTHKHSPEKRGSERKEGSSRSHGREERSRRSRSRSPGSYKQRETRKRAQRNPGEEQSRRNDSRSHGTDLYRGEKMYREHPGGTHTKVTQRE
# UniProt Q99828: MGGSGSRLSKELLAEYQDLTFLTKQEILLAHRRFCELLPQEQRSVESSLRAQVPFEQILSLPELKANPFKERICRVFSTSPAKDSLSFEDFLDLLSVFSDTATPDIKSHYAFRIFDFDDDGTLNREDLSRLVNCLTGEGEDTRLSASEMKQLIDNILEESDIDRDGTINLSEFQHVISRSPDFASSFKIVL
# UniProt P53675: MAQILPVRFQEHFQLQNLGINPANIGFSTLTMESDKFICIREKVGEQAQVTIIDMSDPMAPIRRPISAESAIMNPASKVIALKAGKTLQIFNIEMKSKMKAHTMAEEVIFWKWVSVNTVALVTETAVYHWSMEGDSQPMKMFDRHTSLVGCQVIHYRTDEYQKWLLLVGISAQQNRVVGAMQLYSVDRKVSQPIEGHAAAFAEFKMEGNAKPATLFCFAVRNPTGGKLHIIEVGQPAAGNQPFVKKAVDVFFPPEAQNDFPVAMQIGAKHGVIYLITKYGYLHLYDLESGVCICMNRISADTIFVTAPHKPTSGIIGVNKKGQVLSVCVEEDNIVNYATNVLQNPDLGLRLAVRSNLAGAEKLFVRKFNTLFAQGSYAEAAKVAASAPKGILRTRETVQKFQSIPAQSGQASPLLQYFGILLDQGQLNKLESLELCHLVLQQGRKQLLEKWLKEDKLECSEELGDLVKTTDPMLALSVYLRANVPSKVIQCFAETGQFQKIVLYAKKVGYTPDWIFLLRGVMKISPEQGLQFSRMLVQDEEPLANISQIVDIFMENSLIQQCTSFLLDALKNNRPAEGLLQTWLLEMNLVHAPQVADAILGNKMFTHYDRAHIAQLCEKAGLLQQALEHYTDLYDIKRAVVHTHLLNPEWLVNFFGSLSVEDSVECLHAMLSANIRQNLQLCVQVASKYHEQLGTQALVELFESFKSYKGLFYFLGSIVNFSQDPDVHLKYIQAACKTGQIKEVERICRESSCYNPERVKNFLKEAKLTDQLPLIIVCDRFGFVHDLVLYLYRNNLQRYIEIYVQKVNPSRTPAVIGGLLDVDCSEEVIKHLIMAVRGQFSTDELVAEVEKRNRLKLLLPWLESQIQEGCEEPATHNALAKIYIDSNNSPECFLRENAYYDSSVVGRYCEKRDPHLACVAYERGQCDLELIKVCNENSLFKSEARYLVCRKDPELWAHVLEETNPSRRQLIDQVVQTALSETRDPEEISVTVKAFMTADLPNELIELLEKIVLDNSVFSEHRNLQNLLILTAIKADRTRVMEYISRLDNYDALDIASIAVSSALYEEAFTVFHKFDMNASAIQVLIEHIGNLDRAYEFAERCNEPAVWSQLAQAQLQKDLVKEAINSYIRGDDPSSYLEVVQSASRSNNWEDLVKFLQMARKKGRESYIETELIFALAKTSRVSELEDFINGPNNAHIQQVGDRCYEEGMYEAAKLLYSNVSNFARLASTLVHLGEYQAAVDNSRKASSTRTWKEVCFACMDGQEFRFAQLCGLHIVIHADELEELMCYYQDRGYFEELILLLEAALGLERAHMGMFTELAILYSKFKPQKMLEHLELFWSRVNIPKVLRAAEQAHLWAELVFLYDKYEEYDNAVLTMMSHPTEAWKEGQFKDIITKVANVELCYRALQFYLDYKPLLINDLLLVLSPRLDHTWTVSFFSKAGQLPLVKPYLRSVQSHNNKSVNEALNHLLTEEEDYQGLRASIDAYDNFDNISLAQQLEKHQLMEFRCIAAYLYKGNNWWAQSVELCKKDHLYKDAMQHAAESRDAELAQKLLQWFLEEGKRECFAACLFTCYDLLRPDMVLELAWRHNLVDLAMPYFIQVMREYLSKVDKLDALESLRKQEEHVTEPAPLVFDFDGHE
# Compound: CC1Cc2ccccc2N1C(=O)C1CCCN(C1)C(=O)CCl (mixture of isomers) [TRIM25 ligand 11 (diastereomer mixture)]
# Test: probe-labelled cysteine peptide fold change vs DMSO (competition) (log2 fold change); higher = less target engagement (more negative = stronger competition)
# Conditions: THP-1, incubation time: 4 h
# 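Further: competitive chemoproteomic profiling in live THP-1 cells with an iodoacetamide desthiobiotin (IA-DTB) probe, comparing probe-labelled peptide intensities in compound-treated cells against DMSO-treated controls.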
target,measurement,setting,value
CFL1_P23528_139_LTGIKHELQANCYEEVK (UniProt P23528),probe-labelled cysteine peptide fold change,10 µM,-0.462
same,probe-labelled cysteine peptide fold change,50 µM,-0.555
CLIC1_O00299_89_IEEFLEAVLCPPRYPK (UniProt O00299),probe-labelled cysteine peptide fold change,10 µM,0.0826
same,probe-labelled cysteine peptide fold change,50 µM,0.0584
CIAO1_O76071_97_NQDDFECVTTLEGHENEVK (UniProt O76071),probe-labelled cysteine peptide fold change,10 µM,0.202
same,probe-labelled cysteine peptide fold change,50 µM,0.0175
CHURC1_Q8WUH1_88_SLKEEDGEEIVTYDHLCK (UniProt Q8WUH1),probe-labelled cysteine peptide fold change,10 µM,-0.0858
same,probe-labelled cysteine peptide fold change,50 µM,-0.00733
CLTC_Q00610_824_VNPSRLPVVIGGLLDVDCSEDVIK (UniProt Q00610),probe-labelled cysteine peptide fold change,10 µM,0.043
same,probe-labelled cysteine peptide fold change,50 µM,0.185
CIT_O14578_1655_ALCLVDVK (UniProt O14578),probe-labelled cysteine peptide fold change,10 µM,0.171
same,probe-labelled cysteine peptide fold change,50 µM,0.38
CLIP1_P30622_265_YFQCQPK (UniProt P30622),probe-labelled cysteine peptide fold change,10 µM,0.00441
same,probe-labelled cysteine peptide fold change,50 µM,0.153
CHD2_O14647_500_KQPAYLGGENLELRDYQLEGLNWLAHSWCK (UniProt O14647),probe-labelled cysteine peptide fold change,10 µM,-0.2
same,probe-labelled cysteine peptide fold change,50 µM,-0.0236
CHAF1B_Q13112_6_VITCEIAWHNK (UniProt Q13112),probe-labelled cysteine peptide fold change,10 µM,0.0543
same,probe-labelled cysteine peptide fold change,50 µM,0.02
CHD8_Q9HCK8_2300_LVELEVECMEEPNHLDVDLETR (UniProt Q9HCK8),probe-labelled cysteine peptide fold change,10 µM,0.185
same,probe-labelled cysteine peptide fold change,50 µM,-0.423
CHORDC1_Q9UHD1_194+195_YWSCCR (UniProt Q9UHD1),probe-labelled cysteine peptide fold change,10 µM,0.132
same,probe-labelled cysteine peptide fold change,50 µM,0.179
CIAO3_Q9H6Q4_246_IYHVTVMPCYDK (UniProt Q9H6Q4),probe-labelled cysteine peptide fold change,10 µM,-0.0935
same,probe-labelled cysteine peptide fold change,50 µM,-0.161
CLIC6_Q96NY7_641_FLDGDELTLADCNLLPK (UniProt Q96NY7),probe-labelled cysteine peptide fold change,10 µM,-0.145
same,probe-labelled cysteine peptide fold change,50 µM,0.02
CHD1L_Q86WJ1_739_YVSGDVTHPQAGAEDALIVHCVDDSGHWGR (UniProt Q86WJ1),probe-labelled cysteine peptide fold change,10 µM,0.0148
same,probe-labelled cysteine peptide fold change,50 µM,-0.245
CLUH_O75153_753_DAAAFLLSCQIPGLVK (UniProt O75153),probe-labelled cysteine peptide fold change,10 µM,-0.111
same,probe-labelled cysteine peptide fold change,50 µM,-0.27
CHCHD3_Q9NX63_112_ICSEEER (UniProt Q9NX63),probe-labelled cysteine peptide fold change,10 µM,-0.357
same,probe-labelled cysteine peptide fold change,50 µM,-0.344
CIP2A_Q8TCG1_615_DQICDVR (UniProt Q8TCG1),probe-labelled cysteine peptide fold change,10 µM,-0.0238
same,probe-labelled cysteine peptide fold change,50 µM,-0.103
CHERP_Q8IWX8_246_VVVPIYCTSFLAVEEDK (UniProt Q8IWX8),probe-labelled cysteine peptide fold change,10 µM,0.0777
same,probe-labelled cysteine peptide fold change,50 µM,0.156
CHAMP1_Q96JM3_770_CNFESNFPR (UniProt Q96JM3),probe-labelled cysteine peptide fold change,10 µM,-0.0713
same,probe-labelled cysteine peptide fold change,50 µM,0.0125
CHD6_Q8TD26_975_FCEEDIDQILQR (UniProt Q8TD26),probe-labelled cysteine peptide fold change,10 µM,0.16
same,probe-labelled cysteine peptide fold change,50 µM,0.102
CHD2_O14647_365_VSPEDVEYFNCQQELASELNK (UniProt O14647),probe-labelled cysteine peptide fold change,10 µM,0.063
same,probe-labelled cysteine peptide fold change,50 µM,-0.0106
CHD1_O14646_1176_LGELVHNGCIK (UniProt O14646),probe-labelled cysteine peptide fold change,10 µM,-0.0564
same,probe-labelled cysteine peptide fold change,50 µM,-0.0746
CLASP2_O75122_221_LIPLITSNCTSK (UniProt O75122),probe-labelled cysteine peptide fold change,10 µM,0.0126
same,probe-labelled cysteine peptide fold change,50 µM,0.0133
CIAO1_O76071_308_VFQEDPNSDPQQPTFSLTAHLHQAHSQDVNCVAWNPK (UniProt O76071),probe-labelled cysteine peptide fold change,10 µM,0.317
same,probe-labelled cysteine peptide fold change,50 µM,-0.188
CLP1_Q92989_71_VAVFTWHGCSVQLSGR (UniProt Q92989),probe-labelled cysteine peptide fold change,10 µM,-0.13
same,probe-labelled cysteine peptide fold change,50 µM,0.296
CIR1_Q86X95_10_SFANFMCK (UniProt Q86X95),probe-labelled cysteine peptide fold change,10 µM,-0.0223
same,probe-labelled cysteine peptide fold change,50 µM,-0.206
CFAP20_Q9Y6A4_61_RITDNDIQSLVLEIEGTNVSTTYITCPADPKK (UniProt Q9Y6A4),probe-labelled cysteine peptide fold change,10 µM,-0.0841
same,probe-labelled cysteine peptide fold change,50 µM,-0.0161
CIB1_Q99828_134_LVNCLTGEGEDTR (UniProt Q99828),probe-labelled cysteine peptide fold change,10 µM,-0.0273
same,probe-labelled cysteine peptide fold change,50 µM,-0.157
CLTCL1_P53675_778_LTDQLPLIIVCDR (UniProt P53675),probe-labelled cysteine peptide fold change,10 µM,0.341
same,probe-labelled cysteine peptide fold change,50 µM,0.417
CHKB_Q9Y259_28_CPDTTPK (UniProt Q9Y259),probe-labelled cysteine peptide fold change,10 µM,-0.12
same,probe-labelled cysteine peptide fold change,50 µM,-0.2
CLIC1_O00299_59_LCPGGQLPFLLYGTEVHTDTNK (UniProt O00299),probe-labelled cysteine peptide fold change,10 µM,0.214
same,probe-labelled cysteine peptide fold change,50 µM,0.0937
CLTCL1_P53675_736_YIQAACK (UniProt P53675),probe-labelled cysteine peptide fold change,10 µM,0.038
same,probe-labelled cysteine peptide fold change,50 µM,0.0227
CIAPIN1_Q6FI81_116_LCSALTLSGLVEVK (UniProt Q6FI81),probe-labelled cysteine peptide fold change,10 µM,-0.104
same,probe-labelled cysteine peptide fold change,50 µM,-0.161
CLTC_Q00610_1573_RECFGACLFTCYDLLRPDVVLETAWR (UniProt Q00610),probe-labelled cysteine peptide fold change,10 µM,0.32
same,probe-labelled cysteine peptide fold change,50 µM,0.0387
CLTCL1_P53675_918_DPHLACVAYER (UniProt P53675),probe-labelled cysteine peptide fold change,10 µM,0.0446
same,probe-labelled cysteine peptide fold change,50 µM,-0.112
CISD3_P0C7P0_100_MVALCTCK (UniProt P0C7P0),probe-labelled cysteine peptide fold change,10 µM,0.0725
same,probe-labelled cysteine peptide fold change,50 µM,0.0818
CISD2_Q8N5K1_92_VVNEINIEDLCLTK (UniProt Q8N5K1),probe-labelled cysteine peptide fold change,10 µM,-0.12
same,probe-labelled cysteine peptide fold change,50 µM,-0.0153
CFAP20_Q9Y6A4_119_VKPFICTMPMR (UniProt Q9Y6A4),probe-labelled cysteine peptide fold change,10 µM,-0.021
same,probe-labelled cysteine peptide fold change,50 µM,-0.115
CES1_P23141_390_SYPLVCIAK (UniProt P23141),probe-labelled cysteine peptide fold change,10 µM,-0.0706
same,probe-labelled cysteine peptide fold change,50 µM,0.0945

# In a second layout: entries from further up
target	measurement	setting	value
CIAO1_O76071_97_NQDDFECVTTLEGHENEVK (UniProt O76071)	probe-labelled cysteine peptide fold change	10 µM	0.202
CHD8_Q9HCK8_2300_LVELEVECMEEPNHLDVDLETR (UniProt Q9HCK8)	probe-labelled cysteine peptide fold change	10 µM	0.185
CHD2_O14647_365_VSPEDVEYFNCQQELASELNK (UniProt O14647)	probe-labelled cysteine peptide fold change	50 µM	-0.0106
CIR1_Q86X95_10_SFANFMCK (UniProt Q86X95)	probe-labelled cysteine peptide fold change	10 µM	-0.0223
CIB1_Q99828_134_LVNCLTGEGEDTR (UniProt Q99828)	probe-labelled cysteine peptide fold change	10 µM	-0.0273
CLTCL1_P53675_918_DPHLACVAYER (UniProt P53675)	probe-labelled cysteine peptide fold change	10 µM	0.0446
